doi:10.1101/421909
Read-outs that look alike come from different tables or passages of the source. Results are given in words; binding and its absence hold for the method and conditions named. In cells and extracts the contact can be indirect. A yes stands for co-enrichment or nearness to the bait. Other partners may have been found. For some assays here: A no says only that the protein was not detected with the bait.

The chains behind the UniProt entries cited, without tags or fusion partners. Where a name states a change or a piece, a line headed by the entry shows the natural chain unless it says otherwise. Residues count along the entry.
UniProt O14656, residues 21-332: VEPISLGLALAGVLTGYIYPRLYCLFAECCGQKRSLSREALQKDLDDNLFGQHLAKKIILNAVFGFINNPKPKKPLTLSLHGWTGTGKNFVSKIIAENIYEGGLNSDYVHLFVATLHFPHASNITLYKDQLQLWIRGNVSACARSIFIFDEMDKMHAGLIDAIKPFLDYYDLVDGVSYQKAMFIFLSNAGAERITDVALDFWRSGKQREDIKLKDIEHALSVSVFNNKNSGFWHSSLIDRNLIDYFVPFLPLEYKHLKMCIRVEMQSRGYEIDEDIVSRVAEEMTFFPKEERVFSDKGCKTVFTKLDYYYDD
UniProt P39685: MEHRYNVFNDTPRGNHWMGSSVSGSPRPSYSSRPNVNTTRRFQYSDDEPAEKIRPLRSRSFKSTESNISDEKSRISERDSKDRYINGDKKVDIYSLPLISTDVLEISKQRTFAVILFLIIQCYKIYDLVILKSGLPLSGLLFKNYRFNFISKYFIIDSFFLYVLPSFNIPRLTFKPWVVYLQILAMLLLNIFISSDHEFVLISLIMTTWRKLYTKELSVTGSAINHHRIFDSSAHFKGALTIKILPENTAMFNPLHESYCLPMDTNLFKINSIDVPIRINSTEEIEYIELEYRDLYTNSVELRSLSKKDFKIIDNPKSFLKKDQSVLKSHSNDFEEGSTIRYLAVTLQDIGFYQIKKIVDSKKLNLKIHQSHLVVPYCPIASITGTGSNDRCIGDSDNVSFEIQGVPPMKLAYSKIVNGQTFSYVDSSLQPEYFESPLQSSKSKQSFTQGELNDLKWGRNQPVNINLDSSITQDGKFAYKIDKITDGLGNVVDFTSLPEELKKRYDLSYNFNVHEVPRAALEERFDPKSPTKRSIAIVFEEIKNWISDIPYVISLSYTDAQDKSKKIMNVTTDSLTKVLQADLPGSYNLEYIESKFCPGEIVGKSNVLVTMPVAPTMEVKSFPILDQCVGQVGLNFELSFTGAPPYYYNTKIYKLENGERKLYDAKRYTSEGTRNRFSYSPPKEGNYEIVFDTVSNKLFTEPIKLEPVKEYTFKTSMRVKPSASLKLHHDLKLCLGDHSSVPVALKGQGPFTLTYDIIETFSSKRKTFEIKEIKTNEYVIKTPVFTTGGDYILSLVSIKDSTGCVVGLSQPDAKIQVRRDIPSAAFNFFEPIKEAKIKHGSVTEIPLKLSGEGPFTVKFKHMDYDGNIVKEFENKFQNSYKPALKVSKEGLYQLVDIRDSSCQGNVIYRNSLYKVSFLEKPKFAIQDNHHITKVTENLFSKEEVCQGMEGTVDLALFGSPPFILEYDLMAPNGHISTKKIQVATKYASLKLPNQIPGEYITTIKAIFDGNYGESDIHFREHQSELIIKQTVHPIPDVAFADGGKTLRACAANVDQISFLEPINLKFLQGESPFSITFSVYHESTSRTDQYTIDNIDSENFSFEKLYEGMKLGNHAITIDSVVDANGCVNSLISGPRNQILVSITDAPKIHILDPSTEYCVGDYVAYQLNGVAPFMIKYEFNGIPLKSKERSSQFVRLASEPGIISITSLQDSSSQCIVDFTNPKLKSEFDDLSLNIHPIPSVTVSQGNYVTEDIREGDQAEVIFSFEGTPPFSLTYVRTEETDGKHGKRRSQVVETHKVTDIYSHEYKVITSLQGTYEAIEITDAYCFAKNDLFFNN
UniProt P16474, residues 43-682: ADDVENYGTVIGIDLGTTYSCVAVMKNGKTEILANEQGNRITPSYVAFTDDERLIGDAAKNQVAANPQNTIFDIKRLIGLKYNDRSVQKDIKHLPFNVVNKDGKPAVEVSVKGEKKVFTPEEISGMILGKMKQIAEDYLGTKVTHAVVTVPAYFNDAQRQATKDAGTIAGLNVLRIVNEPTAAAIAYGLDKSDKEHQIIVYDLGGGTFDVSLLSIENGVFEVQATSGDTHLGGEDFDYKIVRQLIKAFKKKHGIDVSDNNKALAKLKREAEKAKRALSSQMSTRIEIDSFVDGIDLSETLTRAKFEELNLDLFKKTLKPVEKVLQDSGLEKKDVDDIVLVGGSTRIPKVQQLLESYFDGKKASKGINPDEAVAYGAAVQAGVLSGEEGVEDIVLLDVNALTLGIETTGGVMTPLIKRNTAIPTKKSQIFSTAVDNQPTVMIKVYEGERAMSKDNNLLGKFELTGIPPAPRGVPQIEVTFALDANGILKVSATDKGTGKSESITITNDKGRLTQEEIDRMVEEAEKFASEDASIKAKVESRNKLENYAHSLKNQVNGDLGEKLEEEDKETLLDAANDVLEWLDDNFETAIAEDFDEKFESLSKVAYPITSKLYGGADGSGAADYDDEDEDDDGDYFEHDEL
UniProt P47054: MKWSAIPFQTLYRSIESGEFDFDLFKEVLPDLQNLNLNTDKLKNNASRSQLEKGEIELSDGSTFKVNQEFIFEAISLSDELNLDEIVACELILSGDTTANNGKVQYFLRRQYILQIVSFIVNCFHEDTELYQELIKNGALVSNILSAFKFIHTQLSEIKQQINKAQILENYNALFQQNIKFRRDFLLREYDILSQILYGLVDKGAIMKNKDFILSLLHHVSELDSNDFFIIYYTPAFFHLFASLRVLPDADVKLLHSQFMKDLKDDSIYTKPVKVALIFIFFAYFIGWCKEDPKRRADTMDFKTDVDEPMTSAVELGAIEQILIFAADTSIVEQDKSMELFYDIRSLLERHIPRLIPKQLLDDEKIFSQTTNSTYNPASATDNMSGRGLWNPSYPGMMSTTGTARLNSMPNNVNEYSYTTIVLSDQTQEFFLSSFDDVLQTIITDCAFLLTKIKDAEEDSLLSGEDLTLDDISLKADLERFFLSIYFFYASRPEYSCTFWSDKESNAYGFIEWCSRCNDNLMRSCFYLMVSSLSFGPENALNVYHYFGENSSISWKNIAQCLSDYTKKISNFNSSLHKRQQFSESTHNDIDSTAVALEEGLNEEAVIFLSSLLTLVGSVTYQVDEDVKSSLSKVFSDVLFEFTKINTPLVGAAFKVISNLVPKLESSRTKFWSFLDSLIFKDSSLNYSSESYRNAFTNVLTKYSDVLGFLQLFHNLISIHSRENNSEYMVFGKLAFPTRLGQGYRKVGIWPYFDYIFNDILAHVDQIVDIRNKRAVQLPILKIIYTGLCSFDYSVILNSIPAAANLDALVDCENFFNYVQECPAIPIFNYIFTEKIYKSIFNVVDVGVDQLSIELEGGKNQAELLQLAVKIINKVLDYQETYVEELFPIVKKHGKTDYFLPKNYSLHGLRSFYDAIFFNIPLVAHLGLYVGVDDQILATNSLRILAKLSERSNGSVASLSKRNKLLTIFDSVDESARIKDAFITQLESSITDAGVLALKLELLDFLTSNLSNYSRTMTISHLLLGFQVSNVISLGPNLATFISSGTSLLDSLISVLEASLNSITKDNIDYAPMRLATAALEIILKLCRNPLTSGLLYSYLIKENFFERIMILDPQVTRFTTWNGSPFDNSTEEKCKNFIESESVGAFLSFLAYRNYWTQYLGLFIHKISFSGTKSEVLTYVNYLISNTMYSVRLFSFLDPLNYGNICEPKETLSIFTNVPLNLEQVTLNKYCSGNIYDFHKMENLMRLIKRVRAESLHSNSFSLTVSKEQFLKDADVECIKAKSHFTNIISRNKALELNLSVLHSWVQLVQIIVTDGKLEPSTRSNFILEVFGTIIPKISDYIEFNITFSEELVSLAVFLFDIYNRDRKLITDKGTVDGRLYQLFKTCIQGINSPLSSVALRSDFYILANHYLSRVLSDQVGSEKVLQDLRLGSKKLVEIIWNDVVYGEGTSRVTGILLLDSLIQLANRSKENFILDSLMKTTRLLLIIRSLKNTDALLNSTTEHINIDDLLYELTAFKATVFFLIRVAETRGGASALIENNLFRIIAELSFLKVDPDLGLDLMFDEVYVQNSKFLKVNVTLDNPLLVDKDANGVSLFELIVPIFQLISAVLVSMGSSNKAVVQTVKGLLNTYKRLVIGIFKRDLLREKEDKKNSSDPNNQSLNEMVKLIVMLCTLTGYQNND

Tests used:
Assay in all cases: affinity purification with mass spectrometry
TorsinA-GFP (human) [1] = biological target: TorsinA-GFP (human) (UniProt O14656)
TorsinA-ΔE-GFP (human) [2] = biological target: TorsinA-ΔE-GFP (human) (UniProt O14656)
TorsinA-GFP (human) [3] = biological target: TorsinA-GFP (human) (UniProt O14656); remark: listed apart in the source
TorsinA-ΔE-GFP (human) [4] = biological target: TorsinA-ΔE-GFP (human) (UniProt O14656); remark: listed apart in the source

binding (TorsinA-GFP (human) [1]) | binding (TorsinA-ΔE-GFP (human) [2]) | binding (TorsinA-GFP (human) [3]) | binding (TorsinA-ΔE-GFP (human) [4]) | Molecule
binds | no binding |  |  | Pom152 (from UniProt P39685 1-1337)
binds | binds |  |  | Kar2 (from UniProt P16474 43-682)
binds |  |  |  | Nup192 (from UniProt P47054 1-1683)
 |  | binds |  | Kre5 (enzyme, UniProt P22023 18-1365) WTYSLRYGIPESAQVWSILVHLLGDVDNQLLTNLYPLVTGLDDEIDIQENLVALTSNVLRERYDKEDVADLLELYASLYPMGMIQHDISSNAEQDDANSSYFVLNGNRYEKPDDVFYLKSKDLTIQQKVPDVDVIQPYDVVIGTNSEAPILILYGCPTVIDSDFEEFNRNLFMEAMNGEGKFRFIWRSTCSLDGKSVEYPLTHPLEITLQNGSRMSSIPQLKKILYTVPKEILVGADNDDQLHDLEPEELRELDLRVTSLISEFYQYKKDITATLNFTKSIVNNFPLISKQLIKVSSVNKDIITSNEELNSKGFDYNMLGLYINGQNWKITSLTPYNLLTALKTEYQSLLKITNLLQELEPSKCILDSKFLLNKFSQFSLGKLQNLQPIKMDLHTIPGFSESVIYFNDIESDPQYDELVNSVQAFFDKSKFGELPEIKQNWSEIIFVIDFARLEDSEVKEALGGLVRAVNVVSQGYPQRVGLLPFSSDSDKSVVNKIYELKNSTDNLTELKSFLETMLLADGLSANAKHSKHIPVPDVFHLLDELQIDETSIIINGEIYPFRKNAWNYLIAKVIKKDTEFIRKELSNSSPKNKQISVRDLLHYKSANLRHNKYTPNYFADSVYSSVNNTALESVCSERIGYYTKNEEYNLLHTITLVDDFGSIHALKRLRNLLHTSFVGVRIRIIHVGDISDIWYQLRGSLSQKDPIGSINTFIDALKLKKVKSHTYKKSGLNQLGLHKWLPDIPLFELQKGSFIALNGRFIHLDQNEVPETEHFEAIIKREALRTIDSVFALDLLFPGFSQEIINPDLIEMISSILTRLFYQGTHIYNNGIDYTTESSLPRMDLSEFFRPNNLTMFEDGKSASIDLLLILDPLEERTQMILSLVEQFRPLKFVNIQVILMPTLELNIVPIRRIYVDDADIVKSITSEDSRSDPEVDIEMDVPNSFIVDNNYRIKKLLIELHSFSSKTVLSTGNIDGMGGVCLALVDSAGNIIDKTTTMKTFGYGQFHTDKFLKGCYIKSCDSRYTVQSFSTDGHPDFIPSDSLDILSYNPQKIAVKISEEPTHEEEYEEGRNNDTIINIFTILESGPDEEERYMQMILSILSKCPETQKVNFFILDQPFISDTLRKSCEYINSSDEMRGNVIFLNYEWPQWLRPQRFSSRRRDVSRFLFLDVLLPQNISKVLYMSPTEVPLDPFDIFQFQGLKRAPLGLFRMSGDGYWKEGYWEKMLRENNLEFYSTEPAFLVNLERFRELDAGDKYRIHYQRISTDAMSLVNIGQDLVNNLQLEVPIRFLKGSYKKKLVINDECVSEWKKKINKFASSPGDEDVPGESVSSKYQDSDNAAPLHDEL
 |  | binds |  | Mnn2 (enzyme, UniProt P38069 1-597) MLLTKRFSKLFKLTFIVLILCGLFVITNKYMDENTSVKEYKEYLDRYVQSYSNKYSSSSDAASADDSTPLRDNDEAGNEKLKSFYNNVFNFLMVDSPKGSTAKQYNEACLLKGDIGDRPDHYKDLYKLSAKELSKCLELSPDEVASLTKSHKDYVEHIATLVSPKGTYKGSGIATVGGGKFSLMAFLIIKTLRNMGTTLPVEVLIPPGDEGETEFCNKILPKYNSKCIYVSDILPRETIEKFVFKGYQFKSLALIASSFENLLLLDADNFPIKPLDNIFNEEPYVSTGLVMWPDFWRRTTHPLYYDIAGIAVDKKKRVRNSRDDITPPAVYTKDLKDLSDVPLSDLDGTIPDVSTESGQLMINKTKHLATALLSLFYNVNGPTWYYPIFSQKAAGEGDKETFIAAANFYGLSFYQVRTRTGVEGYHDEDGFHGVAMLQHDFVQDYGRYLNAMESIGNKYGGTKSADAIKFDKNYSLEKYTEEFFDNEDLNAKNHVDVMFIHSNFPKFDPYDLSKSNFLTTNGKPARSYTALKKVKNYDIELENFKVLNEYVCVNKNPFKYLDDLLGQDKTEWKRVCGYITDRLAFLESTHDKAIAGK
 |  | binds | binds | Mps3 (protein, UniProt P47069 1-682) MNNSNEHRREEAGAANEQMPYNKAVKSAYADVLKDKMNREQEISLRAIKKGIYTDGGETDNYDMDKENDSAYEMFKKNLDFPLDQHNDDDDDDPYIEDNGQETDGYSDEDYTDEADKSFIEDSDSDSYDLESNSDFEENLESSGEAKKLKWRTYIFYGGLFFVFYFFGSFLMTTVKNNDLESHSSGATSSPGKSFSNLQKQVNHLYSELSKRDEKHSSELDKTVKIIVSQFEKNIKRLLPSNLVNFENDINSLTKQVETISTSMSELQRRNHKFTVENVTQWQDQLVKQLDTHLPQEIPVVINNSSSLLIIPELHNYLSALISDVIESPGIGTAGSAESRWEYDLNRYVKEILSNELQYIDKDYFIQEMNRRLQSNKQEIWEEITNRLETQQQQQQQQVQQDYSNVPQQYSSILMKRLIHQIYNSNQHQWEDDLDFATYVQGTKLLNHLTSPTWRQGSGVQPIELLTDSKQSSSTYWQCENEPGCSWAIRFKTPLYLTKISYMHGRFTNNLHIMNSAPRLISLYVKLSQTKEIKALQTLANQYGFGQHHKRDRNYIKIAKFEYRLTDSRIRQQMYLPPWFIQLKPLVRSIVFQVDENYGNKKFISLRKFIINGVTPQDLQIIENNEFPVLLGDTPEYGVTQNTDEGKRKVLLSKPPYASSSTSTKFHPASNVPSFGQDELDQ
 |  | no binding | no binding | Mps2 (protein, UniProt P53159 1-387) MSNGAFDAIFEYAWGQIDKPISGDFIYGKDLPKLIEIIENIFQKAQKSGSYELRLPLFSEINKDLFRTFSNTKTFFKIHKEEFDDIFFNLVNHPLREILENAFIGVDSIPSDFIVSMNLNSPSKFLVENKNKNTEGAGISTPRKKLTESPIKLLSRNNIGKALEVQVEELKRELTAKQSLLQENERQVSELKIRLETYQEKYASIQQRFSDLQKARQVEDNQNSSRTSDPGSPLVTGIDQKAILEEFRRRLQRQTDTISFLKDQIRRERGLNCSNDKVSHSKRKHATTDGDGTFKNFISAVPSNIWVKATIRIIVCFALLAGVLPYIRKYVYAHDTPSQNSRLQLSWWENSGILSKIVWFFEDQTDLETEYRSNANVDDAYSRVFGI
